For 27 sequences, self-aminoacylation results are on record in the supplement of paper PMC9233669.

This sample is rich in variants without activity.

One data set deals with biotinyl-Val-oxazolone. The experiment in a line: self-aminoacylation, catalytic enhancement (BVO) (fold over background); higher = more active; k-Seq, kA / k0A0; sequences stand for … in GGGAAUGGAUCCACAUCUACGAAUUC…UUCACUGCAGACUUGACGAAGCUG
The method, boiled down:
(§1)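 Catalytic enhancement equals the median kA over the uncatalyzed rate, the latter read from the low-activity peak of a bimodal Gaussian fit. Values of kA came from fitting each sequence's fraction reacted to a pseudo-first-order model, with 1000 bootstraps. Reacted RNA was captured with streptavidin and quantified by triplicate qPCR and Illumina sequencing after 90 minutes at room temperature with 2–1250 μM biotinyl-aminoacyl-oxazolone and 0.43 μM mutagenized RNA pools bearing a 21-nt variable region.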

The next data set has as its system biotinyl-Ile-oxazolone. The experiment in a line: self-aminoacylation, catalytic enhancement (BIO) (fold over background); higher = more active; k-Seq, kA / k0A0; sequences stand for … in GGGAAUGGAUCCACAUCUACGAAUUC…UUCACUGCAGACUUGACGAAGCUG
The method, boiled down: as §1

A further data set concerns biotinyl-Trp-oxazolone. Description: self-aminoacylation, catalytic enhancement (BWO) (fold over background); higher = more active; k-Seq, kA / k0A0; sequences stand for … in GGGAAUGGAUCCACAUCUACGAAUUC…UUCACUGCAGACUUGACGAAGCUG
Summed up: as §1

The next data set concerns biotinyl-Leu-oxazolone. The experiment in a line: self-aminoacylation, catalytic enhancement (BLO) (fold over background); higher = more active; k-Seq, kA / k0A0; sequences stand for … in GGGAAUGGAUCCACAUCUACGAAUUC…UUCACUGCAGACUUGACGAAGCUG
Summed up:
as §1

Another data set has as its system biotinyl-Met-oxazolone. Description: self-aminoacylation, catalytic enhancement (BMO) (fold over background); higher = more active; k-Seq, kA / k0A0; sequences stand for … in GGGAAUGGAUCCACAUCUACGAAUUC…UUCACUGCAGACUUGACGAAGCUG
The method, boiled down:
as §1

Turning to “AUUCACCUAGAUAAUCGGGUG [Fam2.2 aminoacylation ribozyme variant]”, the self-aminoacylation was found to be 1.37 with biotinyl-Val-oxazolone, 1.39 in the data set on biotinyl-Ile-oxazolone and 1.95 in the data set on biotinyl-Trp-oxazolone.

As to “AUCUUUGCUAAUAGUCGCAAG [Fam3.1 aminoacylation ribozyme variant]”, the self-aminoacylation came to 1.4 in the data set with biotinyl-Val-oxazolone; 1.61 with biotinyl-Leu-oxazolone; 1.83 with biotinyl-Ile-oxazolone; 1.74 with biotinyl-Met-oxazolone; 1.96 with biotinyl-Trp-oxazolone.

Regarding “ACACACUUCAAGCAAUUGGUC [Fam1B.1 aminoacylation ribozyme variant]”, the self-aminoacylation in the data set on biotinyl-Val-oxazolone amounted to 1.17; with biotinyl-Leu-oxazolone, 0.945; in the data set with biotinyl-Ile-oxazolone, 1.09; in the data set on biotinyl-Met-oxazolone, 1.01; in the data set with biotinyl-Trp-oxazolone it was 1.29.

As to “CCACUUCAAAGAAUCGGUCUG [Fam1A.1 aminoacylation ribozyme variant]”, the self-aminoacylation was determined as 1.13 in the data set with biotinyl-Val-oxazolone; 1.32 in the data set with biotinyl-Leu-oxazolone; 1.15 with biotinyl-Ile-oxazolone; 1.04 with biotinyl-Met-oxazolone; 8.92 in the data set with biotinyl-Trp-oxazolone.

Take “AAGUUCGCUGAUAGUCGCAAG [Fam3.1 aminoacylation ribozyme variant]”: the self-aminoacylation worked out at 1.69 in the data set with biotinyl-Val-oxazolone; 1.61 in the data set with biotinyl-Leu-oxazolone; 1.51 with biotinyl-Ile-oxazolone; 1.38 with biotinyl-Met-oxazolone; 1.72 in the data set on biotinyl-Trp-oxazolone.

With “CCAGUCUUCAAGCAAUCGGUC [Fam1B.1 aminoacylation ribozyme variant]”, the self-aminoacylation in the data set with biotinyl-Val-oxazolone turned out to be 1.63; with biotinyl-Leu-oxazolone it was 2.8; in the data set on biotinyl-Ile-oxazolone, 1.67; with biotinyl-Met-oxazolone it was 1.79; in the data set on biotinyl-Trp-oxazolone, 38.6.

In the case of “CUACGUCGAACAAUCGGUCUG [Fam1A.1 aminoacylation ribozyme variant]”, the self-aminoacylation with biotinyl-Val-oxazolone turned out to be 1.93; in the data set on biotinyl-Leu-oxazolone, 1.83; in the data set on biotinyl-Ile-oxazolone it was 1.7; with biotinyl-Met-oxazolone, 1.91; in the data set with biotinyl-Trp-oxazolone it was 1.3.

Turning to “CCCCACUUCAAGCAAUAGGUC [Fam1B.1 aminoacylation ribozyme variant]”, the self-aminoacylation with biotinyl-Val-oxazolone was found to be 0.936; with biotinyl-Leu-oxazolone, 0.673; in the data set with biotinyl-Ile-oxazolone it was 0.812; in the data set with biotinyl-Met-oxazolone, 0.722; in the data set on biotinyl-Trp-oxazolone it was 1.17.

Turning to “AAGCUUGCUUAUAGUCGCAAG [Fam3.1 aminoacylation ribozyme variant]”, the self-aminoacylation with biotinyl-Val-oxazolone was 1.68; in the data set on biotinyl-Leu-oxazolone it was 1.71; in the data set with biotinyl-Met-oxazolone, 1.36; in the data set with biotinyl-Trp-oxazolone, 1.56.

In the case of “AAGUUUGCUCAUCGUCGCAAG [Fam3.1 aminoacylation ribozyme variant]”, the self-aminoacylation was 0.944 in the data set with biotinyl-Val-oxazolone; 1 in the data set on biotinyl-Leu-oxazolone; 1.06 with biotinyl-Ile-oxazolone; 1.07 with biotinyl-Met-oxazolone; 1.73 in the data set with biotinyl-Trp-oxazolone.

“ACUCACCUAGGUCAACGGGUG [Fam2.2 aminoacylation ribozyme variant]”: the self-aminoacylation in the data set on biotinyl-Val-oxazolone worked out at 2.22; with biotinyl-Leu-oxazolone, 2.29; in the data set on biotinyl-Ile-oxazolone, 1.94; in the data set on biotinyl-Met-oxazolone, 2.67; with biotinyl-Trp-oxazolone, 3.14.

“CUCCUUCAAACACUCGGUCUG [Fam1A.1 aminoacylation ribozyme variant]”: the self-aminoacylation in the data set with biotinyl-Val-oxazolone was 1.39; in the data set on biotinyl-Leu-oxazolone it was 1.46; in the data set with biotinyl-Ile-oxazolone, 1.41; with biotinyl-Met-oxazolone it was 1.08; in the data set on biotinyl-Trp-oxazolone, 1.33.

As for “UUACUGCAAACAAUCGGUCUG [Fam1A.1 aminoacylation ribozyme variant]”, the self-aminoacylation was determined as 1.39 with biotinyl-Val-oxazolone; 1.22 with biotinyl-Leu-oxazolone; 1.42 with biotinyl-Ile-oxazolone; 1.17 with biotinyl-Met-oxazolone; 1.26 in the data set with biotinyl-Trp-oxazolone.

Regarding “CUACUUGAAACAAGCGGUCUG [Fam1A.1 aminoacylation ribozyme variant]”, the self-aminoacylation in the data set with biotinyl-Val-oxazolone turned out to be 1.27; in the data set on biotinyl-Leu-oxazolone, 1.2; with biotinyl-Ile-oxazolone it was 1.27; with biotinyl-Met-oxazolone, 1.5; in the data set on biotinyl-Trp-oxazolone, 1.05.

With “AUUACCCUGUUCAUCAAGUGA [Fam2.1 aminoacylation ribozyme variant]”, the self-aminoacylation was 1.34 in the data set with biotinyl-Val-oxazolone; 1.5 in the data set on biotinyl-Leu-oxazolone; 1.4 in the data set with biotinyl-Ile-oxazolone; 1.65 in the data set with biotinyl-Met-oxazolone; 1.49 in the data set with biotinyl-Trp-oxazolone.

“CUACUGCAAACAUUCGGUCUG [Fam1A.1 aminoacylation ribozyme variant]”: the self-aminoacylation in the data set with biotinyl-Val-oxazolone was found to be 1.99; with biotinyl-Leu-oxazolone, 1.96; in the data set on biotinyl-Met-oxazolone, 1.79; with biotinyl-Trp-oxazolone, 1.85.

Regarding “AUUGACCUAGGUCAUCGGGUC [Fam2.2 aminoacylation ribozyme variant]”, the self-aminoacylation in the data set on biotinyl-Val-oxazolone worked out at 1.29; in the data set on biotinyl-Leu-oxazolone, 1.39; in the data set with biotinyl-Ile-oxazolone it was 1.3; with biotinyl-Met-oxazolone, 1.52; in the data set with biotinyl-Trp-oxazolone, 1.55.

“AAGUUUGCGAAUAGUGGCAAG [Fam3.1 aminoacylation ribozyme variant]”: the self-aminoacylation with biotinyl-Val-oxazolone was 0.622; in the data set with biotinyl-Leu-oxazolone, 0.622; in the data set on biotinyl-Ile-oxazolone, 0.769; in the data set on biotinyl-Met-oxazolone, 0.882; in the data set on biotinyl-Trp-oxazolone it was 0.921.

As to “AUUCACCUACGUCAUCGGGGG [Fam2.2 aminoacylation ribozyme variant]”, the self-aminoacylation in the data set on biotinyl-Ile-oxazolone was found to be 1.58; in the data set on biotinyl-Met-oxazolone it was 1.86; in the data set with biotinyl-Trp-oxazolone, 1.77.

“GAGUUUGCUAAGAGUCGCAAG [Fam3.1 aminoacylation ribozyme variant]”: the self-aminoacylation in the data set with biotinyl-Val-oxazolone came out at 1.09; in the data set with biotinyl-Leu-oxazolone, 0.723; in the data set on biotinyl-Ile-oxazolone, 0.978; in the data set on biotinyl-Met-oxazolone it was 0.769; with biotinyl-Trp-oxazolone, 1.97.

Regarding “AGUCACCUAGGUCAUCAGGUG [Fam2.2 aminoacylation ribozyme variant]”, the self-aminoacylation in the data set on biotinyl-Ile-oxazolone came to 1.61; in the data set on biotinyl-Met-oxazolone it was 1.96; with biotinyl-Trp-oxazolone, 1.82.

Regarding “AAGUUUCCUAGUAGUCGCAAG [Fam3.1 aminoacylation ribozyme variant]”, the self-aminoacylation in the data set with biotinyl-Val-oxazolone was found to be 1.44; with biotinyl-Leu-oxazolone, 1.06; in the data set on biotinyl-Ile-oxazolone it was 1.12; with biotinyl-Met-oxazolone it was 1.2; in the data set on biotinyl-Trp-oxazolone it was 0.668.

Regarding “CUACUGCAAACAAGCGGUCUG [Fam1A.1 aminoacylation ribozyme variant]”, the self-aminoacylation in the data set on biotinyl-Val-oxazolone turned out to be 1.35; in the data set on biotinyl-Leu-oxazolone, 0.929; with biotinyl-Ile-oxazolone, 1.59; with biotinyl-Met-oxazolone, 1.22; in the data set with biotinyl-Trp-oxazolone it was 1.52.

For the sequence “CUACUUCAAACAAUCGUUCAG [Fam1A.1 aminoacylation ribozyme variant]”, the self-aminoacylation in the data set with biotinyl-Val-oxazolone stood at 0.769; in the data set with biotinyl-Leu-oxazolone, 0.497; with biotinyl-Ile-oxazolone it was 0.658; with biotinyl-Met-oxazolone, 0.566; in the data set on biotinyl-Trp-oxazolone it was 0.523.

With “AUACACCUAGGUCAUCGGCUG [Fam2.2 aminoacylation ribozyme variant]”, the self-aminoacylation in the data set on biotinyl-Val-oxazolone was determined as 1.54; in the data set on biotinyl-Ile-oxazolone, 1.86; in the data set on biotinyl-Trp-oxazolone, 1.28.

Regarding “CCACACUUCAAGCAAUCGAUC [Fam1B.1 aminoacylation ribozyme variant]”, the self-aminoacylation was found to be 0.765 with biotinyl-Val-oxazolone; 0.508 in the data set on biotinyl-Leu-oxazolone; 0.559 with biotinyl-Ile-oxazolone; 0.421 in the data set on biotinyl-Met-oxazolone; 0.751 in the data set with biotinyl-Trp-oxazolone.

On to “AAUUUUGCUAAGAGUCGCAAG [Fam3.1 aminoacylation ribozyme variant]”, for which the self-aminoacylation with biotinyl-Val-oxazolone was found to be 1.58; in the data set on biotinyl-Leu-oxazolone, 1.92; in the data set on biotinyl-Ile-oxazolone it was 1.91; in the data set on biotinyl-Met-oxazolone it was 1.97; in the data set with biotinyl-Trp-oxazolone, 1.52.
